Earlier results on one compound are cited in patent US7183293B2, “Ether derivatives useful as inhibitors of PDE4 isozymes” (Pfizer Inc., priority 2001, dated 2007).

For this data set the following is noted: human, in vivo.

Regarding `COc1ccc(C(=O)Nc2c(Cl)cncc2Cl)c2cccnc12` [Example D4418], the oral absorption entry is on record as “good oral absorption”.
